# Screening data, single-dose tests

By UniProt entry, the sequences of proteins in these tests, tags left out. Residues count along the entry.
UniProt Q8IDJ8, 1-583: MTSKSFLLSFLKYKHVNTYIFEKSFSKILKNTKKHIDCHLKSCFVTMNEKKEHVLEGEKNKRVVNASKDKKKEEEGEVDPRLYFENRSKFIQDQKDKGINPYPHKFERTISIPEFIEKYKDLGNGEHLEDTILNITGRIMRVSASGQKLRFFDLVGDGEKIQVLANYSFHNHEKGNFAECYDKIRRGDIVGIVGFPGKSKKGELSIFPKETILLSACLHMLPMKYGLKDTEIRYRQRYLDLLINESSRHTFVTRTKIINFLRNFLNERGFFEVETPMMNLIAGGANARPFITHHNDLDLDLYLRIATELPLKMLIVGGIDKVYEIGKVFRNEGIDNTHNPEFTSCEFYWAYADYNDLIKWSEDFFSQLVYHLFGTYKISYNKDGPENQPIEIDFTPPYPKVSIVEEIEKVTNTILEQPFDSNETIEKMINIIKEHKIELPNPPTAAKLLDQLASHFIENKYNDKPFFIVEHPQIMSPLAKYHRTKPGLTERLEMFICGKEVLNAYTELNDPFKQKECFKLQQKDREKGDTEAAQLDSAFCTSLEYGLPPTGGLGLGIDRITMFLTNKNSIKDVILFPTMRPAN

Data taken from ChEMBL document CHEMBL3988442, “University of Dundee, Small-Polar-MMV Screening Library” (2021).

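Lysine-tRNA ligase, Plasmodium falciparum 3D7 (UniProt Q8IDJ8). Enzyme assay of the cytosolic lysyl-tRNA synthetase in 384-well plates, read by luminescence. Compounds at 30 µM. Higher reads as stronger inhibition, judged from the few compounds that gave an IC50. Of about 69,000 compounds tested this way, about 49 (0.071%) reached 50% or more in at least one test.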

Each number is a percent effect as filed.
The record does not define 0% and 100%; most values in the screen are far below 50% and negative numbers occur (in some assays of this library far below -100).
This is an unselected part of the compounds tested.

| SMILES | Percent Effect |
|---|---|
| `CC(C)c1ncc2c(n1)CN(CC1CCCCO1)CC2` (stereo not given) | 2.576% |
| `CS(=O)(=O)NCC(Cc1cccc(F)c1)N1CCNC1=O` (stereo not given) | 0.125% |
| `Cc1cnc(N2CCCC(O)C2)nc1-c1ccnn1C` (stereo not given) | 0.1132% |
| `Cc1ccc(F)c(C(=O)Nc2c(C(N)=O)n[nH]c2C)c1` | 6.24% |
| `Cc1ccoc1C(=O)N1C[C@@H]2COC[C@]2(CNS(C)(=O)=O)C1` | 3.119% |
| `Cc1cn2c(n1)CCC(NC(=O)c1ccc(CS(C)(=O)=O)o1)C2` (stereo not given) | 6.682% |
| `O=C(c1ccncn1)N1CCC[C@]2(C[C@H](Oc3ncccc3F)CO2)C1` | -4.025% |
| `CN(Cc1nnc2n1CCC2)S(=O)(=O)c1ccc(Br)cc1Cl` | 3.526% |
| `Cc1cccc(CNC2CCCc3c2cnn3C)c1` (stereo not given) | -1.975% |
| `CC(c1ccco1)N(C(=O)NCc1ccon1)C1CC1` (stereo not given) | 0.1249% |
| `CC(CO)NS(=O)(=O)c1cccc(C(C)C)c1` (stereo not given) | -3.608% |
| `Cc1cc(-c2cnc(N3CCCC3)nc2C(C)C)on1` | 1.292% |
| `CCCOc1cc(CNC(=O)Nc2ccc(C)cc2)ccn1` | -0.6709% |
| `O=C1NCCCCC1Sc1nnc(-c2cccnc2)n1C1CC1` (stereo not given) | 8.589% |
| `Cn1cnc2cc(C(=O)N3CCN(CCO)[C@@H]4CS(=O)(=O)C[C@@H]43)ccc21` | 2.547% |
| `COc1c(Br)cccc1CCNC(=O)c1ccon1` | 0.3412% |
| `Cc1cc(CN2CCN(c3ccc4nncn4n3)CC2)no1` | -0.3166% |
| `CN(CCCOc1ccccc1Cl)C(=O)CN1C(=O)CCNC1=O` | 4.771% |
| `O=C(CC[C@@H]1CCCN2CCCC[C@H]12)NCCc1nc(O)cc(O)n1` | 4.43% |
| `Cn1c(CN2CCCCC2)cc(=O)c(O)c1CN1CCCCC1` | -1.951% |
| `Cn1nc(-c2ccc(F)cc2)cc1C(=O)NCCn1ccnc1` | 0.4119% |
| `CNC(=O)C1CCCCN1C(=O)c1csc(-c2ccc(C)cc2)n1` (stereo not given) | 3.804% |
| `CC(C)CO[C@@H]1CC[C@H]2[C@H]1OCCN2S(=O)(=O)C1CC1` | 3.609% |
| `CCC(CC)(CNC(=O)OC(C)(C)C)NC(=O)C1CC1` | -6.763% |
| `CN(CCN1CCOCC1)C(=O)C1(c2ccc(F)cc2F)CCC1` | 5.188% |
| `Cc1ccc(C(C)(O)CNC(=O)c2sccc2OC(F)F)o1` (stereo not given) | 3.748% |
| `O=C(CCC(=O)N1CCC(Cc2ccc(CO)cc2)C1)c1ccccc1` (stereo not given) | 4.832% |
| `O=C(CN1CCCCC1Cn1cncn1)NCCc1ccsc1` (stereo not given) | -0.06577% |
| `c1ccc(OCc2nnc3n2CCN(CC2CC2)C3)nc1` | 6.799% |
| `CN(C)c1ccccc1C(=O)N1CCOC2(CNCCOC2)C1` (stereo not given) | -1.189% |
| `CCC(C)C(=O)NCc1c(C)nn(C)c1N1CCCN(C)CC1` (stereo not given) | 4.063% |
| `CNC(C)Cc1ccccc1Sc1ccc(O)cc1` (stereo not given) | 4.001% |
| `O=C(CCc1ccsc1)N1CCC(Cc2ccc(CO)cc2)C1` (stereo not given) | 3.788% |
| `COCCN1C(=O)[C@H]2CC[C@@H]1CN(c1ncccn1)C2` | -6.347% |
| `Cc1ccc(CN(Cc2c[nH]cn2)C2CC(C)(C)NC(C)(C)C2)o1` | 3.583% |
| `O=C(Cc1cccs1)N1CCC(O)(CN2CCc3ccccc3C2)C1` (stereo not given) | 5.066% |
| `Cc1cccn2cc(CN3CCC(N4CCN(C)C4=O)CC3)nc12` | 12.56% |
| `CC(C)c1cc(C(=O)NCCCN(C)C)nc(N2CCCC2)n1` | -0.3619% |
| `Cc1ccc(CN2CCc3nnc(CN4CCCC4=O)n3CC2)o1` | 2.943% |
| `O=C(CC1CN(Cc2ccccc2)CCO1)Nc1ccccc1F` (stereo not given) | 1.457% |
| `COc1nn(C)cc1C(=O)NCC1(O)CCc2ccccc2C1` (stereo not given) | 3.235% |
| `O=C(NCCNc1ncccn1)N(Cc1ccc(F)cc1F)C1CC1` | 11.32% |
| `Cc1ccccc1CC(C)NC(=O)Nc1cnn(CC(N)=O)c1` (stereo not given) | 1.89% |
| `CN(C)CC1(O)CCCN(C(=O)c2ccccc2-n2cccn2)C1` (stereo not given) | 5.12% |
| `CCc1csc(C2CCCN(C(=O)c3ccccn3)C2)n1` (stereo not given) | 1.879% |
| `COc1ccc2nc(CNC(=O)C3CC4(CCNCC4)CN3C)[nH]c2c1` (stereo not given) | -1.475% |
| `Cc1cc(C(F)(F)F)cc(=O)n1CCCn1cnnn1` | 2.252% |
| `CC1COCCN1C(=O)Nc1cnc2c(cnn2C(C)C)c1` (stereo not given) | 1.542% |
| `OCc1ccc(N2CCN(c3ncccn3)CC2)c(F)c1` | -1.212% |
| `O=C([C@H]1CC[C@@H]2[C@@H](CCN2Cc2nccs2)O1)N1CCCCO1` | 7.259% |
| `CC(C)c1nsc(N2CCc3sccc3C2)n1` | -1.148% |
| `COc1ccccc1C(=O)N1CC(=O)N(CC(C)C)CC(O)C1` (stereo not given) | 6.42% |
| `COc1ccc(NC(=O)CCNc2ncccn2)cn1` | 2.909% |
| `CCOc1ncnc2c1CCN(C(=O)c1ccncc1F)CC2` | -3.065% |
| `N#Cc1cccc(CN2C[C@@H](NC(=O)C3CC3)[C@H]3OCCC[C@H]32)c1` | -0.9361% |
| `CCOCc1ccc(NCc2cnc(N3CCN(C)CC3)nc2)cc1` | 3.494% |
| `Cc1cccc(N2CC3(CCN(C(=O)NC(C)C)C3)CC2=O)c1` (stereo not given) | 4.093% |
| `O=c1n(Cc2ccc(F)cc2)nc2ncccn12` | -0.292% |
| `CNCc1cc(F)ccc1Oc1ccc(F)cc1` | 4.873% |
| `Cc1cccnc1CN(C)C(C(=O)O)c1ccc(-n2cccn2)cc1` (stereo not given) | 5.254% |
| `O=C(c1ccsc1)N1CCC2(CC1)CCN(S(=O)(=O)C1CC1)CC2` | 2.634% |
| `Cn1cc(C(C)(O)CNc2ccc(C(F)(F)F)cn2)cn1` (stereo not given) | 3.015% |
| `COc1ccc(COCC(O)CNC(=O)c2cccnc2)cc1` (stereo not given) | -2.758% |
| `COc1ccc(-c2noc(C3=NN(C)C(=O)CC3)n2)cc1OC` | 9.851% |
| `CCc1nccn1C1CCCN(C(=O)c2ccc3c(c2)OCO3)C1` (stereo not given) | 4% |
| `Cc1nc(C(C)C)sc1C(=O)N(C)Cc1cnn(C)c1` | -1.376% |
| `CN(C(=O)c1ccncc1Cl)c1ccccc1S(C)(=O)=O` | -8.043% |
| `CCCOc1ccc(CN)c(OC(F)F)c1` | 4.79% |
| `Cn1cc(C(=O)CC2CCCN2C(=O)c2ccn3ccnc3c2)cn1` (stereo not given) | -0.02323% |
| `CN(C)CCN1CC(C(=O)NCc2cccc(-n3cccn3)c2)CC1=O` (stereo not given) | 7.163% |
| `O=C(CCC1CCN(C(=O)c2csnn2)CC1)NCc1cccc(Cl)c1` | 1.059% |
| `CC(=O)N1CCN(C(=O)NCc2cccnc2OC(C)C)CC1` | -2.584% |
| `COCCN1CCC2(CC1)CC(NC(=O)CN(C)C)c1ccccc1O2` (stereo not given) | 6.024% |
| `O=C(NCCNc1ncccn1)N1CCCC1c1ccncc1` (stereo not given) | 6.249% |
| `CC(=O)N1CCc2c(nc(N(C)C)nc2NCCc2cccs2)C1` | 0.127% |
| `O=C(c1ccoc1)N1CCOCC2(CCN(C3CCOCC3)C2)C1` (stereo not given) | -0.8839% |
| `Cc1nn(Cc2ccc(C(=O)NC3CCS(=O)(=O)C3)cc2)c(C)c1Br` (stereo not given) | 5.274% |
| `CCC(NC(=O)NC1CCN(S(C)(=O)=O)CC1)c1cccs1` (stereo not given) | 1.887% |
| `CC(C)(O)CN1CCN(C(=O)c2cccc3cccnc23)CC1` | 0.006693% |
| `CS(=O)(=O)N1CCCC(Cc2cncc(-c3ccccc3C(=O)O)n2)C1` (stereo not given) | 4.048% |
| `Cc1ccc2c(CC(=O)N(C)CCN(C)C)c(C)[nH]c2c1C` | 1.851% |
| `c1cnc(N2CCO[C@H]3CN(Cc4ccsc4)C[C@H]32)nc1` | -0.3483% |
| `Cc1cc(CN2CC[C@H]3C[C@@H](C)O[C@@H]3C2)no1` | 7.47% |
| `c1cncc(COCc2nnc3n2CCN(Cc2cccs2)C3)c1` | 0.3586% |
| `Cc1ncsc1C(=O)NCc1ccnc(N2CCN(C)CC2)c1` | 1.668% |
| `O=C(CC1CC1)N[C@@H]1CN(c2ncccn2)C[C@@H]2CCCO[C@@H]21` | 3.673% |
| `CC(C)(CCS(C)(=O)=O)CNc1ccc2ccc(F)cc2n1` | 3.765% |
| `CS(=O)(=O)NCc1nnc2n1CCN(Cc1ccccn1)C2` | 0.7837% |

Repeated from the top, 5 entries:

| SMILES | Percent Effect |
|---|---|
| `CC(C)c1ncc2c(n1)CN(CC1CCCCO1)CC2` (stereo not given) | 2.576% |
| `CS(=O)(=O)NCC(Cc1cccc(F)c1)N1CCNC1=O` (stereo not given) | 0.125% |
| `Cc1cnc(N2CCCC(O)C2)nc1-c1ccnn1C` (stereo not given) | 0.1132% |
| `Cc1ccc(F)c(C(=O)Nc2c(C(N)=O)n[nH]c2C)c1` | 6.24% |
| `Cc1ccoc1C(=O)N1C[C@@H]2COC[C@]2(CNS(C)(=O)=O)C1` | 3.119% |